# This is one part of the list. Repeats are few or missing, and single values can be far off.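 Cells were imaged in 1,536-well plates, and nuclei stained with an antibody against cleaved PARP were counted against all DNA-stained nuclei to give the apoptosis fraction. Screening doses were chosen to leave most cells alive, and resting and induced cleaved-PARP levels differ strongly between cell lines.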
# Key:
# Assay in all cases: cleaved PARP positive nuclei fraction relative to DMSO control; melanoma cells; higher = more apoptosis
# Conditions in all cases: library dose: low library concentration; 72 h
# [1] = test system: MZ2-MEL
# [2] = test system: MeWo
# [3] = test system: RPMI7951
# [4] = test system: RVH-421
# [5] = test system: SkMel28
# [6] = test system: SkMel30
# [7] = test system: UACC62
# [8] = test system: SkMel5
# [9] = test system: UACC257
structure (smiles),measurement,setting,value
"C[C@]12O[C@H](C[C@]1(O)CO)n1c3ccccc3c3c4c(c5c6ccccc6n2c5c31)CNC4=O [Lestaurtinib] + CCCCCCCCc1ccc(CCC(N)(CO)CO)cc1 [fingolimod] (first compound 0.004 µM, partner dose 2 µM)",cleaved PARP positive nuclei fraction,[1],89.8%
same,cleaved PARP positive nuclei fraction,[2],41.7%
same,cleaved PARP positive nuclei fraction,[3],64.4%
same,cleaved PARP positive nuclei fraction,[4],80.9%
same,cleaved PARP positive nuclei fraction,[5],92.8%
same,cleaved PARP positive nuclei fraction,[6],83%
same,cleaved PARP positive nuclei fraction,[7],69.2%
"Cc1cc(SCc2sc(-c3ccc(C(F)(F)F)c(F)c3)nc2C)ccc1OCC(=O)O + CC(C)CCN1c2nc(Nc3cc(F)c(O)c(F)c3)ncc2N(C)C(=O)C1C [BID1870] (first compound 2 µM, partner dose 0.2 µM)",cleaved PARP positive nuclei fraction,[1],165%
same,cleaved PARP positive nuclei fraction,[2],113%
same,cleaved PARP positive nuclei fraction,[3],36.3%
same,cleaved PARP positive nuclei fraction,[4],141%
same,cleaved PARP positive nuclei fraction,[5],111%
same,cleaved PARP positive nuclei fraction,[6],33.9%
same,cleaved PARP positive nuclei fraction,[8],127%
same,cleaved PARP positive nuclei fraction,[9],168%
same,cleaved PARP positive nuclei fraction,[7],77.4%
"C[C@]12O[C@H](C[C@]1(O)CO)n1c3ccccc3c3c4c(c5c6ccccc6n2c5c31)CNC4=O [Lestaurtinib] + COc1ccc(Cl)c(Nc2nc3ccccc3nc2NS(=O)(=O)c2cccc(NC(=O)C(C)(C)N)c2)c1 [XL147] (first compound 0.004 µM, partner dose 0.8 µM)",cleaved PARP positive nuclei fraction,[1],45.9%
same,cleaved PARP positive nuclei fraction,[2],110%
same,cleaved PARP positive nuclei fraction,[3],84.9%
same,cleaved PARP positive nuclei fraction,[4],114%
same,cleaved PARP positive nuclei fraction,[5],203%
same,cleaved PARP positive nuclei fraction,[6],24%
same,cleaved PARP positive nuclei fraction,[7],75.4%
"C[C@]12O[C@H](C[C@]1(O)CO)n1c3ccccc3c3c4c(c5c6ccccc6n2c5c31)CNC4=O [Lestaurtinib] + Cc1ccc(NC(=O)c2cccc(N(C)C)c2)cc1NC(=O)c1ccc(O)cc1 [ZM336372] (first compound 0.004 µM, partner dose 2 µM)",cleaved PARP positive nuclei fraction,[1],67.3%
same,cleaved PARP positive nuclei fraction,[2],96.2%
same,cleaved PARP positive nuclei fraction,[3],145%
same,cleaved PARP positive nuclei fraction,[4],87.1%
same,cleaved PARP positive nuclei fraction,[5],108%
same,cleaved PARP positive nuclei fraction,[6],72.6%
same,cleaved PARP positive nuclei fraction,[8],143%
same,cleaved PARP positive nuclei fraction,[9],504%
same,cleaved PARP positive nuclei fraction,[7],99.9%
"C[C@]12O[C@H](C[C@]1(O)CO)n1c3ccccc3c3c4c(c5c6ccccc6n2c5c31)CNC4=O [Lestaurtinib] + CCN(CC)CCNC(=O)c1c(C)[nH]c(/C=C2\C(=O)Nc3ccc(F)cc32)c1C [sunitinib] (first compound 0.004 µM, partner dose 0.4 µM)",cleaved PARP positive nuclei fraction,[1],107%
same,cleaved PARP positive nuclei fraction,[2],32.5%
same,cleaved PARP positive nuclei fraction,[3],195%
same,cleaved PARP positive nuclei fraction,[4],44.2%
same,cleaved PARP positive nuclei fraction,[5],83.9%
same,cleaved PARP positive nuclei fraction,[6],76.6%
same,cleaved PARP positive nuclei fraction,[7],140%
"C[C@]12O[C@H](C[C@]1(O)CO)n1c3ccccc3c3c4c(c5c6ccccc6n2c5c31)CNC4=O [Lestaurtinib] + Nc1cccc2c1CN(C1CCC(=O)NC1=O)C2=O [lenalidomide] (first compound 0.004 µM, partner dose 1 µM)",cleaved PARP positive nuclei fraction,[1],95%
same,cleaved PARP positive nuclei fraction,[2],63.4%
same,cleaved PARP positive nuclei fraction,[3],107%
same,cleaved PARP positive nuclei fraction,[4],96.6%
same,cleaved PARP positive nuclei fraction,[5],61.1%
same,cleaved PARP positive nuclei fraction,[6],111%
same,cleaved PARP positive nuclei fraction,[7],35.6%
"COc1ccc(C2=N[C@@H](c3ccc(Cl)cc3)[C@@H](c3ccc(Cl)cc3)N2C(=O)N2CCNC(=O)C2)c(OC(C)C)c1 [Nutlin-3] + C[C@]12O[C@H](C[C@]1(O)CO)n1c3ccccc3c3c4c(c5c6ccccc6n2c5c31)CNC4=O [Lestaurtinib] (first compound 0.1 µM, partner dose 0.004 µM)",cleaved PARP positive nuclei fraction,[1],85.3%
same,cleaved PARP positive nuclei fraction,[2],42.3%
same,cleaved PARP positive nuclei fraction,[3],86.5%
same,cleaved PARP positive nuclei fraction,[4],66.5%
same,cleaved PARP positive nuclei fraction,[5],121%
same,cleaved PARP positive nuclei fraction,[6],110%
same,cleaved PARP positive nuclei fraction,[7],159%
"C[As](C)SC[C@H](NC(=O)CC[C@H](N)C(=O)O)C(=O)NCC(=O)O [Darinaparsin] + CCc1ccc(CCOc2ccc(CC3SC(=O)NC3=O)cc2)nc1 [pioglitazone] (first compound 0.4 µM, partner dose 2 µM)",cleaved PARP positive nuclei fraction,[1],85.8%
same,cleaved PARP positive nuclei fraction,[2],38.7%
same,cleaved PARP positive nuclei fraction,[3],459%
same,cleaved PARP positive nuclei fraction,[4],164%
same,cleaved PARP positive nuclei fraction,[5],202%
same,cleaved PARP positive nuclei fraction,[6],114%
same,cleaved PARP positive nuclei fraction,[8],84%
same,cleaved PARP positive nuclei fraction,[9],118%
same,cleaved PARP positive nuclei fraction,[7],158%
"O=C(Nc1cc(C(F)(F)F)cc(C(F)(F)F)c1)c1cc(Cl)ccc1O + C[C@]12O[C@H](C[C@]1(O)CO)n1c3ccccc3c3c4c(c5c6ccccc6n2c5c31)CNC4=O [Lestaurtinib] (first compound 0.016 µM, partner dose 0.004 µM)",cleaved PARP positive nuclei fraction,[1],133%
same,cleaved PARP positive nuclei fraction,[2],38.9%
same,cleaved PARP positive nuclei fraction,[3],126%
same,cleaved PARP positive nuclei fraction,[4],99.2%
same,cleaved PARP positive nuclei fraction,[5],137%
same,cleaved PARP positive nuclei fraction,[6],51.5%
same,cleaved PARP positive nuclei fraction,[7],71.4%
"Cc1cn(-c2cc(NC(=O)c3ccc(C)c(Nc4nccc(-c5cccnc5)n4)c3)cc(C(F)(F)F)c2)cn1 [nilotinib] + C[C@]12O[C@H](C[C@]1(O)CO)n1c3ccccc3c3c4c(c5c6ccccc6n2c5c31)CNC4=O [Lestaurtinib] (first compound 0.2 µM, partner dose 0.004 µM)",cleaved PARP positive nuclei fraction,[1],53.6%
same,cleaved PARP positive nuclei fraction,[2],61.2%
same,cleaved PARP positive nuclei fraction,[3],73.9%
same,cleaved PARP positive nuclei fraction,[4],45.6%
same,cleaved PARP positive nuclei fraction,[5],69.6%
same,cleaved PARP positive nuclei fraction,[6],295%
same,cleaved PARP positive nuclei fraction,[7],57.5%
"COc1cc(Nc2ncc(F)c(Nc3ccc4c(n3)NC(=O)C(C)(C)O4)n2)cc(OC)c1OC [Tamatinib] + O=C(Oc1ccc([N+](=O)[O-])cc1)N1CCC(C(O)(c2ccc3c(c2)OCO3)c2ccc3c(c2)OCO3)CC1 [JZL184] (first compound 0.4 µM, partner dose 1 µM)",cleaved PARP positive nuclei fraction,[1],85.8%
same,cleaved PARP positive nuclei fraction,[2],52.9%
same,cleaved PARP positive nuclei fraction,[3],43.3%
same,cleaved PARP positive nuclei fraction,[4],126%
same,cleaved PARP positive nuclei fraction,[5],171%
same,cleaved PARP positive nuclei fraction,[6],167%
same,cleaved PARP positive nuclei fraction,[8],32.4%
same,cleaved PARP positive nuclei fraction,[9],175%
same,cleaved PARP positive nuclei fraction,[7],41.7%

# Reformatted: results already given
structure (smiles)	measurement	setting	value
C[As](C)SC[C@H](NC(=O)CC[C@H](N)C(=O)O)C(=O)NCC(=O)O [Darinaparsin] + CCc1ccc(CCOc2ccc(CC3SC(=O)NC3=O)cc2)nc1 [pioglitazone] (first compound 0.4 µM, partner dose 2 µM)	cleaved PARP positive nuclei fraction	[8]	84%
same	cleaved PARP positive nuclei fraction	[9]	118%
same	cleaved PARP positive nuclei fraction	[7]	158%
O=C(Nc1cc(C(F)(F)F)cc(C(F)(F)F)c1)c1cc(Cl)ccc1O + C[C@]12O[C@H](C[C@]1(O)CO)n1c3ccccc3c3c4c(c5c6ccccc6n2c5c31)CNC4=O [Lestaurtinib] (first compound 0.016 µM, partner dose 0.004 µM)	cleaved PARP positive nuclei fraction	[1]	133%
same	cleaved PARP positive nuclei fraction	[2]	38.9%
same	cleaved PARP positive nuclei fraction	[3]	126%
same	cleaved PARP positive nuclei fraction	[4]	99.2%
same	cleaved PARP positive nuclei fraction	[5]	137%
same	cleaved PARP positive nuclei fraction	[6]	51.5%
same	cleaved PARP positive nuclei fraction	[7]	71.4%
Cc1cn(-c2cc(NC(=O)c3ccc(C)c(Nc4nccc(-c5cccnc5)n4)c3)cc(C(F)(F)F)c2)cn1 [nilotinib] + C[C@]12O[C@H](C[C@]1(O)CO)n1c3ccccc3c3c4c(c5c6ccccc6n2c5c31)CNC4=O [Lestaurtinib] (first compound 0.2 µM, partner dose 0.004 µM)	cleaved PARP positive nuclei fraction	[1]	53.6%
same	cleaved PARP positive nuclei fraction	[2]	61.2%
same	cleaved PARP positive nuclei fraction	[3]	73.9%
same	cleaved PARP positive nuclei fraction	[4]	45.6%
same	cleaved PARP positive nuclei fraction	[5]	69.6%
same	cleaved PARP positive nuclei fraction	[6]	295%
same	cleaved PARP positive nuclei fraction	[7]	57.5%
COc1cc(Nc2ncc(F)c(Nc3ccc4c(n3)NC(=O)C(C)(C)O4)n2)cc(OC)c1OC [Tamatinib] + O=C(Oc1ccc([N+](=O)[O-])cc1)N1CCC(C(O)(c2ccc3c(c2)OCO3)c2ccc3c(c2)OCO3)CC1 [JZL184] (first compound 0.4 µM, partner dose 1 µM)	cleaved PARP positive nuclei fraction	[1]	85.8%
same	cleaved PARP positive nuclei fraction	[2]	52.9%
same	cleaved PARP positive nuclei fraction	[3]	43.3%
same	cleaved PARP positive nuclei fraction	[4]	126%

# From the supplement of paper PMC4604168 (melanoma cell lines)
